# The other results are listed elsewhere or left out.
# B1: LlpA (Arthrobacter sp) (protein)
# chain: MGSSHHHHHHSSGLVPRGSHMTLHPETALRPGAAATSPNSRYRLLYQTDGNLVLYGPDGPLWDSGTNGHGAGACIMQADGNLVLYGPNDEYVWDTETDNNPGSRLVIQDDGNAVIYRPDGSPLWATETCQPPGSADSHVLQSGSTLTPTHGIRSANGLYGLLYQTDGNLVFYGPDGPLWDSGTNGRGAGACIMQPDGNLVLYGPHDEYVWDTETDNNPGSRLVIQDDGNAVIYRPDGNPTWVTGTH
# Columns and labels:
# Assay in all cases: glycan array binding signal (z-score within array); higher = stronger binding
# Settings in all cases: glycan notation: IUPAC condensed, linker removed
# [1] = molecular target: Fuc(a1-2)[GalNAc(a1-3)]Gal(b1-3)GlcNAc(b1-3)GalNAc
# Procedure, shortened: (§1)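 From the Consortium for Functional Glycomics database, 3228 arrays were curated, keeping only those whose protein sequence was available. Binding is given as a within-array Z-score averaged across arrays sharing a protein sequence and across linkers. Negative Z-scores can be read as non-binding.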
# [2] = molecular target: Fuc(a1-2)[GalNAc(a1-3)]Gal(b1-3)GlcNAc(b1-6)GalNAc
# Procedure, shortened: as §1
# [3] = molecular target: Fuc(a1-2)[GalNAc(a1-3)]Gal(b1-4)Glc
# Procedure, shortened: as §1
# [4] = molecular target: Fuc(a1-2)[GalNAc(a1-3)]Gal(b1-4)GlcNAc
# Procedure, shortened: as §1
# [5] = molecular target: Fuc(a1-2)[GalNAc(a1-3)]Gal(b1-4)GlcNAc(b1-2)Man
# Procedure, shortened: as §1
# [6] = molecular target: Fuc(a1-2)[GalNAc(a1-3)]Gal(b1-4)GlcNAc(b1-2)Man(a1-3)[Fuc(a1-2)[GalNAc(a1-3)]Gal(b1-4)GlcNAc(b1-2)Man(a1-6)]Man(b1-4)GlcNAc(b1-4)GlcNAc
# Procedure, shortened: as §1
# [7] = molecular target: Fuc(a1-2)[GalNAc(a1-3)]Gal(b1-4)GlcNAc(b1-2)Man(a1-3)[Fuc(a1-2)[GalNAc(a1-3)]Gal(b1-4)GlcNAc(b1-2)Man(a1-6)]Man(b1-4)GlcNAc(b1-4)[Fuc(a1-6)]GlcNAc
# Procedure, shortened: as §1
# [8] = molecular target: Fuc(a1-2)[GalNAc(a1-3)]Gal(b1-4)GlcNAc(b1-3)Gal(b1-4)GlcNAc
# Procedure, shortened: as §1
# [9] = molecular target: Fuc(a1-2)[GalNAc(a1-3)]Gal(b1-4)GlcNAc(b1-3)Gal(b1-4)GlcNAc(b1-3)Gal(b1-4)GlcNAc
# Procedure, shortened: as §1
# [10] = molecular target: Fuc(a1-2)[GalNAc(a1-3)]Gal(b1-4)GlcNAc(b1-3)GalNAc
# Procedure, shortened: as §1
# [11] = molecular target: Fuc(a1-2)[GalNAc(a1-3)]Gal(b1-4)GlcNAc(b1-3)[Fuc(a1-2)[GalNAc(a1-3)]Gal(b1-4)GlcNAc(b1-6)]GalNAc
# Procedure, shortened: as §1
# [12] = molecular target: Fuc(a1-2)[GalNAc(a1-3)]Gal(b1-4)GlcNAc(b1-6)GalNAc
# Procedure, shortened: as §1
# [13] = molecular target: Fuc(a1-2)[GalNAc(a1-3)]Gal(b1-4)[Fuc(a1-3)]GlcNAc
# Procedure, shortened: as §1
# [14] = molecular target: Fuc(a1-2)[GalNAc(a1-3)]Gal(b1-4)[Fuc(a1-3)]GlcNAc(b1-3)GalNAc
# Procedure, shortened: as §1
# [15] = molecular target: Fuc(a1-2)[GalNAc(a1-4)]Gal(b1-4)GlcNAc
# Procedure, shortened: as §1
# [16] = molecular target: Fuc(a1-2)[GalNAc(b1-3)]Gal
# Procedure, shortened: as §1
# Fuc(a1-3)GlcNAc = molecular target: Fuc(a1-3)GlcNAc
# Procedure, shortened: as §1
# [17] = molecular target: Fuc(a1-3)[Gal(b1-4)]Glc6S
# Procedure, shortened: as §1
# [18] = molecular target: Fuc(a1-3)[Gal(b1-4)]GlcNAc
# Procedure, shortened: as §1
# [19] = molecular target: Fuc(a1-3)[Gal(b1-4)]GlcNAc(b1-2)Man
# Procedure, shortened: as §1
# [20] = molecular target: Fuc(a1-3)[Gal(b1-4)]GlcNAc(b1-2)Man(a1-3)[Fuc(a1-3)[Gal(b1-4)]GlcNAc(b1-2)Man(a1-6)]Man(b1-4)GlcNAc(b1-4)GlcNAc
# Procedure, shortened: as §1
# [21] = molecular target: Fuc(a1-3)[Gal(b1-4)]GlcNAc(b1-2)Man(a1-3)[Fuc(a1-3)[Gal(b1-4)]GlcNAc(b1-2)Man(a1-6)]Man(b1-4)GlcNAc(b1-4)[Fuc(a1-6)]GlcNAc
# Procedure, shortened: as §1
# [22] = molecular target: Fuc(a1-3)[Gal(b1-4)]GlcNAc(b1-3)Gal(b1-3)[Fuc(a1-4)]GlcNAc
# Procedure, shortened: as §1
# [23] = molecular target: Fuc(a1-3)[Gal(b1-4)]GlcNAc(b1-3)Gal(b1-4)[Fuc(a1-3)]GlcNAc
# Procedure, shortened: as §1
# [24] = molecular target: Fuc(a1-3)[Gal(b1-4)]GlcNAc(b1-3)Gal(b1-4)[Fuc(a1-3)]GlcNAc(b1-3)Gal(b1-4)[Fuc(a1-3)]GlcNAc
# Procedure, shortened: as §1
# [25] = molecular target: Fuc(a1-3)[Gal(b1-4)]GlcNAc(b1-3)GalNAc
# Procedure, shortened: as §1
# [26] = molecular target: Fuc(a1-3)[Gal(b1-4)]GlcNAc(b1-6)GalNAc
# Procedure, shortened: as §1
# [27] = molecular target: Fuc(a1-3)[Gal(b1-4)]GlcNAc(b1-6)[Gal(b1-3)GlcNAc(b1-3)]Gal(b1-4)Glc
# Procedure, shortened: as §1
# [28] = molecular target: Fuc(a1-3)[Gal(b1-4)]GlcNAc6S
# Procedure, shortened: as §1
# [29] = molecular target: Fuc(a1-3)[Gal3S(b1-4)]Glc
# Procedure, shortened: as §1
# [30] = molecular target: Fuc(a1-3)[Gal3S(b1-4)]GlcNAc
# Procedure, shortened: as §1
# [31] = molecular target: Fuc(a1-3)[Gal3S(b1-4)]GlcNAc6S
# Procedure, shortened: as §1
# [32] = molecular target: Fuc(a1-3)[GalNAc(b1-4)]GlcNAc
# Procedure, shortened: as §1
# [33] = molecular target: Fuc(a1-3)[GalNAc(b1-4)]GlcNAc6S
# Procedure, shortened: as §1
# Fuc(a1-4)GlcNAc = molecular target: Fuc(a1-4)GlcNAc
# Procedure, shortened: as §1
# Fuc(b1-3)GlcNAc = molecular target: Fuc(b1-3)GlcNAc
# Procedure, shortened: as §1
# Gal(a1-2)Gal = molecular target: Gal(a1-2)Gal
# Procedure, shortened: as §1
binder,measurement,setting,value
B1,glycan array binding signal (z-score),[1],2.37
same,glycan array binding signal (z-score),[2],-1.27
same,glycan array binding signal (z-score),[3],-0.96
same,glycan array binding signal (z-score),[4],-1.17
same,glycan array binding signal (z-score),[5],-0.746
same,glycan array binding signal (z-score),[6],0.566
same,glycan array binding signal (z-score),[7],1.79
same,glycan array binding signal (z-score),[8],-0.334
same,glycan array binding signal (z-score),[9],0.339
same,glycan array binding signal (z-score),[10],-1.12
same,glycan array binding signal (z-score),[11],-0.209
same,glycan array binding signal (z-score),[12],-1.78
same,glycan array binding signal (z-score),[13],0.016
same,glycan array binding signal (z-score),[14],0.653
same,glycan array binding signal (z-score),[15],1.18
same,glycan array binding signal (z-score),[16],-0.918
same,glycan array binding signal (z-score),Fuc(a1-3)GlcNAc,-0.654
same,glycan array binding signal (z-score),[17],0.121
same,glycan array binding signal (z-score),[18],-0.668
same,glycan array binding signal (z-score),[19],-1.69
same,glycan array binding signal (z-score),[20],1.18
same,glycan array binding signal (z-score),[21],-0.24
same,glycan array binding signal (z-score),[22],-0.714
same,glycan array binding signal (z-score),[23],1.02
same,glycan array binding signal (z-score),[24],0.796
same,glycan array binding signal (z-score),[25],-0.551
same,glycan array binding signal (z-score),[26],-0.86
same,glycan array binding signal (z-score),[27],-0.159
same,glycan array binding signal (z-score),[28],1.84
same,glycan array binding signal (z-score),[29],-0.034
same,glycan array binding signal (z-score),[30],0.665
same,glycan array binding signal (z-score),[31],0.757
same,glycan array binding signal (z-score),[32],0.003
same,glycan array binding signal (z-score),[33],-0.21
same,glycan array binding signal (z-score),Fuc(a1-4)GlcNAc,0.825
same,glycan array binding signal (z-score),Fuc(b1-3)GlcNAc,-0.675
same,glycan array binding signal (z-score),Gal(a1-2)Gal,0.948

# Laid out differently: results already given.
binder	measurement	setting	value
B1	glycan array binding signal (z-score)	[10]	-1.12
same	glycan array binding signal (z-score)	[11]	-0.209
